From PMC10951710 come the findings set out here.

Amino acid sequences for entries named in this document (tags omitted). A change or cut given only in a name is not applied to a line headed by its entry.
UniProt F4IMY0: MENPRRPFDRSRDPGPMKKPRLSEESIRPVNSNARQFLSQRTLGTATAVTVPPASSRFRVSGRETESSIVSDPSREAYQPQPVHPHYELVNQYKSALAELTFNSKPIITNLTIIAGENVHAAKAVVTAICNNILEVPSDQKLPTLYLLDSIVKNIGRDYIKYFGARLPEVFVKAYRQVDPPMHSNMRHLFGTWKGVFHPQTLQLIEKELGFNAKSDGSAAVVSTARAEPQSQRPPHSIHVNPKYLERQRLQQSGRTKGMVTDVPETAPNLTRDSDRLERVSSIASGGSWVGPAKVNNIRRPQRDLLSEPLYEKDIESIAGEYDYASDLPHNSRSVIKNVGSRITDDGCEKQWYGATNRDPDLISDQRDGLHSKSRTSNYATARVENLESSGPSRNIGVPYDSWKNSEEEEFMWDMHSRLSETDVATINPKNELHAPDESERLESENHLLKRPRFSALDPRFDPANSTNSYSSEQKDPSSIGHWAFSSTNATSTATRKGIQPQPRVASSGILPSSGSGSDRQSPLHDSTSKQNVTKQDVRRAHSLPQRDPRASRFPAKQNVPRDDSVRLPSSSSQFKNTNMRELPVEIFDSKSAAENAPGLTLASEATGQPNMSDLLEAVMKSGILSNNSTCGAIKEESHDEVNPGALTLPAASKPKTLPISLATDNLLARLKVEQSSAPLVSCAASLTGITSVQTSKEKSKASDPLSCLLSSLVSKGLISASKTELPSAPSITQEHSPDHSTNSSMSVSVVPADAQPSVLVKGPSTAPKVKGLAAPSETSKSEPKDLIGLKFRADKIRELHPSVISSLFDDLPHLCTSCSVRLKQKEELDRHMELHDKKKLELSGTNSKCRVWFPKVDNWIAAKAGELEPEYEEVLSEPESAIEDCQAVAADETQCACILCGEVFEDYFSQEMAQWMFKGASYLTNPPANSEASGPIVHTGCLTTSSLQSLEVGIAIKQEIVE

The target in assay [1] is T1, MKK1-TurboID-Hisx8 fusion protein (mitogen-activated protein kinase kinase 1 fused to TurboID) (Arabidopsis thaliana) (UniProt Q94A06).
T1 sequence: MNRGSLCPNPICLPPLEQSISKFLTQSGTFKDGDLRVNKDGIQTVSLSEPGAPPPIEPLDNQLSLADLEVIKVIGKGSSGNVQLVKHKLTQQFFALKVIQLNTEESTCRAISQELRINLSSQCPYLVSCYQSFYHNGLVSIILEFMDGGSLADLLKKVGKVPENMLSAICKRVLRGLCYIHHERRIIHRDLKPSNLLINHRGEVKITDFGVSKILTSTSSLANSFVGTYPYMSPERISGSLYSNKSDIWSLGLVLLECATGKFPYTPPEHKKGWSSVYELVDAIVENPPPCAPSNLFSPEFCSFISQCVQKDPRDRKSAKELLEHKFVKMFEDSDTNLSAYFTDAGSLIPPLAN
As to the kind of experiment: proximity labelling; in planta TurboID labelling in MKK1-ID or MKK2-ID transgenic Arabidopsis against TurboID-only (ID) plants; 150 uM biotin and 5 uM estradiol in the medium, 5 min wind of 4 m/sec; denaturing extraction, streptavidin enrichment of biotinylproteins and biotinylpeptides, LC-MS/MS, iBAQ quantitation; hits at log2-ratio >= 1.58 and BH-FDR <= 0.05.

Assay [2] deals with T2, MKK2-TurboID-Hisx8 fusion protein (mitogen-activated protein kinase kinase 2 fused to TurboID) (Arabidopsis thaliana) (UniProt Q9S7U9).
T2 sequence: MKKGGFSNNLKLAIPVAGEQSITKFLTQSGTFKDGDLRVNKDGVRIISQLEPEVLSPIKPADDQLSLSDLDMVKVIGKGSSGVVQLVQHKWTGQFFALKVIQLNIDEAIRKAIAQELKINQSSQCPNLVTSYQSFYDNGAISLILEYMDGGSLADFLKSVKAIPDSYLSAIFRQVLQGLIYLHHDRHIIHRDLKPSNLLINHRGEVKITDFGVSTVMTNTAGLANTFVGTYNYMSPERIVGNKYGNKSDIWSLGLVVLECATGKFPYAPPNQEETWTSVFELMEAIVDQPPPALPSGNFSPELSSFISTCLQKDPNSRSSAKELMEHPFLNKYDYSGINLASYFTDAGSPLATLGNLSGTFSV
Described as above.

No constants are given. Whether binding was seen depends on the method and setting. In cells and extracts the contact can be indirect. A yes stands for co-enrichment or nearness to the bait. Other partners may have been found. Where a sequence is shown, tags or fusion partners need not be part of it.

As for “e1a2 subunit of branched chain ketoacid dehydrogenase (BCKDH) complex (E1A2)”, in assay [1], the binding entry was “binds”.
Regarding Transcriptional activator (DUF662), the binding result in assay [1] and in assay [2] was “binds” in each case.
On to “Involved in plant trans-Golgi network (TGN) transport (EPS2)”, for which the binding entry in assay [1] and in assay [2] was “binds” throughout.
Take “Pre-mRNA cleavage complex 2 Pcf11-like protein (from UniProt F4IMY0)”: the binding result in assay [1] and in assay [2] was “binds” each time.

B1: Alfin-like 2 (AL2) (protein, UniProt Q9SRM4 1-246)
chain: MAAAAVSSNPRTVEEIFKDYSARRAALLRALTKDVDDFYSQCDPEKENLCLYGHPNESWEVNLPAEEVPPELPEPALGINFARDGMQRKDWLSLVAVHSDCWLLSVSFYFGARLNRNERKRLFSLINDLPTLFDVVTGRKAMKDNKPSSDSGSKSRNGTKRSIDGQTKSSTPKLMEESYEEEEEEDEHGDTLCGSCGGHYTNEEFWICCDVCERWYHGKCVKITPAKAESIKQYKCPPCCAKKGRQ
On to B1, for which the binding result in assay [2] was “binds”.

B2: Sorting nexin 2B (SNX2B) (protein, UniProt B9DFS6 1-572)
chain: MMGSENDEESHLHSSKEEMEKLFLREDGDPLTKSNVNGDKSNSNYRSAMSTLFDSRHPSIVVTPADSDPLFAPPSYYSESRSPRSKPNGGDRVSSYLEPPSYADVIFSPFDDISEINGSEDGHSQSSDSLSRSPSSLSSDYIKITVSNPQKEQEATNSMIPGGSTYITYQITTRTNLSDYGGSEFSVRRRFRDIVTLADRLAESYRGFCIPPRPDKSIVESQVMQKQEFVEQRRVALEKYLRRLVAHPVIRNSDELKVFLQAQGKLPLATSTDVASRMLDGAVKLPKQLFGEGGGASSVEVVQPGRGGRDFLRMFKELRQSVSNDWGGSKPPVVEEDKEFLEKKEKMYDLEQQIINASQQAESLVKAQQDMGETMGELGLAFIKLTKFENEEAVFNSQRARANDMKNLATSAVKASRFYRELNSQTVKHLDTLHDYLGLMMAVQGAFADRSSALLTVQTLLSELSSLEARAEKLEVASSKVFGGDKSRIKKIEELKETIKVTEDSKNVAIREYEQIKENNWSEVERLDRERRADFLNMMKGFVANQVGYAEKIANVWTKVAEETRQYDRESS
As for B2, the binding result in assay [1] is “binds”.
